Results reported in patent publication US20240034757A1.
No constants are given. Whether binding was seen depends on the method and setting.

Sequences of proteins named here, by UniProt entry; tags and fusion partners are left off. Residues count along the entry.
UniProt P19876, residues 35-107: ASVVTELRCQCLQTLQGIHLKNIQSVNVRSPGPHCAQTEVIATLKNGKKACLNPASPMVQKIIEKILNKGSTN
UniProt O14625, residues 22-94: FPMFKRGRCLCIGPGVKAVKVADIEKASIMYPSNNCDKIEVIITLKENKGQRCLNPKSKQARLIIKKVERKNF
UniProt O43927, residues 23-109: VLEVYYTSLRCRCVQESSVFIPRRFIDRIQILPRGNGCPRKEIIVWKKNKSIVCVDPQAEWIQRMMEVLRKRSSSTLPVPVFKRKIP
UniProt Q07325, residues 23-125: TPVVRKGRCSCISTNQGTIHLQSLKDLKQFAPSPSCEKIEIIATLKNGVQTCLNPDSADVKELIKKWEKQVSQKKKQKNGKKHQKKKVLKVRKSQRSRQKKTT
UniProt O15467, residues 24-120: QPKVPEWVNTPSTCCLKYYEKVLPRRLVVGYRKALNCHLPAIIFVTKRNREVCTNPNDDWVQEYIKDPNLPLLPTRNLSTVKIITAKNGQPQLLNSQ
UniProt P02776, residues 32-101: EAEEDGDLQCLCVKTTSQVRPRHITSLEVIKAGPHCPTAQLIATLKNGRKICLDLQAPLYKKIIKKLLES
UniProt P09341, residues 35-107: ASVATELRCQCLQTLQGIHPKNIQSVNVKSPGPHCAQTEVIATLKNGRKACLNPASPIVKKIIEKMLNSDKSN
UniProt Q9Y4X3, residues 25-112: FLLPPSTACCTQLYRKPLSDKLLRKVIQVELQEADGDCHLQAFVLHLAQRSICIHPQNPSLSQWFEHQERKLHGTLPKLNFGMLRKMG
UniProt P02775, residues 59-128: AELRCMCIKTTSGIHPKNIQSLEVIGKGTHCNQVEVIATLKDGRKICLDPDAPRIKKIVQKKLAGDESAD
UniProt P80162, residues 38-114: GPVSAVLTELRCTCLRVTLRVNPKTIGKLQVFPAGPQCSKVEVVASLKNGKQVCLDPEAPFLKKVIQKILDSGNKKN
UniProt P78423, residues 25-100: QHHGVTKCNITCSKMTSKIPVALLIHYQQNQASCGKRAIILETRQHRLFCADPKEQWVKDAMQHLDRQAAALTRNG
UniProt P80098, residues 24-99: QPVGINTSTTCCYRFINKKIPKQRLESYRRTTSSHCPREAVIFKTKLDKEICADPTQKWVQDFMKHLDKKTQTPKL
UniProt P19875, residues 35-107: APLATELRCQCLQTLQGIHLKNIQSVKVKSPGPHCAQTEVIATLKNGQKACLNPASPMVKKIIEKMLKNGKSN
UniProt P48061, residues 22-89: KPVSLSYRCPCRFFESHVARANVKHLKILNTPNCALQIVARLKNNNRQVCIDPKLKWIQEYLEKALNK
UniProt Q16663, residues 22-113: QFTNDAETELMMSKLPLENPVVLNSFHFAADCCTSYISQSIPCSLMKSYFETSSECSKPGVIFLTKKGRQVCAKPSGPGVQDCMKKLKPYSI
UniProt Q9NRJ3, residues 23-127: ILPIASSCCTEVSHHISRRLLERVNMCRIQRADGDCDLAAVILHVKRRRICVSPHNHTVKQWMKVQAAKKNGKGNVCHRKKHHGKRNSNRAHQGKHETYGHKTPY
UniProt P55773, residues 22-120: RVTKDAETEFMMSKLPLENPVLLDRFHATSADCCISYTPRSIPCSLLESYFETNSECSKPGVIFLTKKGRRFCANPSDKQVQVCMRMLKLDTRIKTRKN
UniProt P22362, residues 24-96: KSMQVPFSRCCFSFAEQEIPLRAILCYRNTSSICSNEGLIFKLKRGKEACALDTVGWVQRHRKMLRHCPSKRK
UniProt P02778, residues 22-98: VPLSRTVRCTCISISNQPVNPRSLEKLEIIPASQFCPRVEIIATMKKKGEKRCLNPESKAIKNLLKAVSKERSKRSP
UniProt P13501, residues 24-91: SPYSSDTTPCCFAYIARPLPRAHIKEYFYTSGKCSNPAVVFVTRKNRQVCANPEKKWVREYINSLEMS
UniProt P10145, residues 28-99: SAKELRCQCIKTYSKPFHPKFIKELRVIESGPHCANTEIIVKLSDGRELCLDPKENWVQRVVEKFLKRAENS
UniProt P42830, residues 41-114: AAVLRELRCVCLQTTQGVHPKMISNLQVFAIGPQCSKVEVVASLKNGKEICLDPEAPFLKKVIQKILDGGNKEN
UniProt O95715, residues 35-111: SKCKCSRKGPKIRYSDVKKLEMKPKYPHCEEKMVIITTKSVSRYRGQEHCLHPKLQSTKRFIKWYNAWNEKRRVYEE
UniProt P78556, residues 27-96: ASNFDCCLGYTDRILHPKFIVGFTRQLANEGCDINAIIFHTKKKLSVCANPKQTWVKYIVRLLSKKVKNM
UniProt O00175, residues 27-104: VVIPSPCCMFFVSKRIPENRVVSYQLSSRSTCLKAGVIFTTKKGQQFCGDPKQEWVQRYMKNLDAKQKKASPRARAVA
UniProt O00585, residues 24-134: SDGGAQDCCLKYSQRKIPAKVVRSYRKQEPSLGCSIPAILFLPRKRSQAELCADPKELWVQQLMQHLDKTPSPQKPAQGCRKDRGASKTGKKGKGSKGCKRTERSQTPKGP

Legend:
CXCL3_HUMAN (human) = CXCL3_HUMAN (human) (UniProt P19876); experiment: BLI, empty cell the 12th table, row 98, column 6
CXCL11_HUMAN (human) = CXCL11_HUMAN (human) (UniProt O14625); experiment: BLI, empty cell the 12th table, row 106, column 6
CXCL13_HUMAN (human) = CXCL13_HUMAN (human) (UniProt O43927); experiment: BLI, empty cell the 12th table, row 108, column 6
CXCL9_HUMAN (human) = CXCL9_HUMAN (human) (UniProt Q07325); experiment: BLI, empty cell the 12th table, row 104, column 6
CCL16_HUMAN (human) = CCL16_HUMAN (human) (UniProt O15467); experiment: BLI, empty cell the 12th table, row 82, column 6
CXCL4_HUMAN (human) = CXCL4_HUMAN (human) (UniProt P02776); experiment: BLI, empty cell the 12th table, row 99, column 6
CXCL1_HUMAN (human) = CXCL1_HUMAN (human) (UniProt P09341); experiment: BLI, empty cell the 12th table, row 96, column 6
CCL27_HUMAN (human) = CCL27_HUMAN (human) (UniProt Q9Y4X3); experiment: BLI, empty cell the 12th table, row 93, column 6
CXCL7_HUMAN (human) = CXCL7_HUMAN (human) (UniProt P02775); experiment: BLI, empty cell the 12th table, row 102, column 6
CXCL6_HUMAN (human) = CXCL6_HUMAN (human) (UniProt P80162); experiment: BLI, empty cell the 12th table, row 101, column 6
CX3CL1_HUMAN (human) = CX3CL1_HUMAN (human) (UniProt P78423); experiment: BLI, empty cell the 12th table, row 95, column 6
CCL7_HUMAN (human) = CCL7_HUMAN (human) (UniProt P80098); experiment: BLI, empty cell the 12th table, row 76, column 6
CXCL2_HUMAN (human) = CXCL2_HUMAN (human) (UniProt P19875); experiment: BLI, empty cell the 12th table, row 97, column 6
CXCL12_HUMAN (human) = CXCL12_HUMAN (human) (UniProt P48061); experiment: BLI, empty cell the 12th table, row 107, column 6
CCL17_HUMAN (human) = CCL17_HUMAN (human) (UniProt Q92583); experiment: BLI, empty cell the 12th table, row 83, column 6
CCL19_HUMAN (human) = CCL19_HUMAN (human) (UniProt Q99731); experiment: BLI, empty cell the 12th table, row 85, column 6
CCL15_HUMAN (human) = CCL15_HUMAN (human) (UniProt Q16663); experiment: BLI, empty cell the 12th table, row 81, column 6
CCL28_HUMAN (human) = CCL28_HUMAN (human) (UniProt Q9NRJ3); experiment: BLI, empty cell the 12th table, row 94, column 6
XCL1_HUMAN (human) = biological target: T1, XCL1_HUMAN (human) (UniProt P47992); experiment: BLI, empty cell the 12th table, row 113, column 6
T1 sequence: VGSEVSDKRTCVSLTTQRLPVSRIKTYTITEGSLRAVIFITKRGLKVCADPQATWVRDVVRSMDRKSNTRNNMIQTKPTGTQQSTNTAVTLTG

CCL23_HUMAN (human) = CCL23_HUMAN (human) (UniProt P55773); experiment: BLI, empty cell the 12th table, row 89, column 6
CCL1_HUMAN (human) = CCL1_HUMAN (human) (UniProt P22362); experiment: BLI, empty cell the 12th table, row 69, column 6
CXCL10_HUMAN (human) = CXCL10_HUMAN (human) (UniProt P02778); experiment: BLI, empty cell the 12th table, row 105, column 6
CCL5_HUMAN (human) = CCL5_HUMAN (human) (UniProt P13501); experiment: BLI, empty cell the 12th table, row 75, column 6
CXCL8_HUMAN (human) = CXCL8_HUMAN (human) (UniProt P10145); experiment: BLI, empty cell the 12th table, row 103, column 6
CCL22_HUMAN (human) = CCL22_HUMAN (human) (UniProt O00626); experiment: BLI, empty cell the 12th table, row 88, column 6
CXCL5_HUMAN (human) = CXCL5_HUMAN (human) (UniProt P42830); experiment: BLI, empty cell the 12th table, row 100, column 6
CXCL14_HUMAN (human) = CXCL14_HUMAN (human) (UniProt O95715); experiment: BLI, empty cell the 12th table, row 109, column 6
CCL20_HUMAN (human) = CCL20_HUMAN (human) (UniProt P78556); experiment: BLI, empty cell the 12th table, row 86, column 6
CCL24_HUMAN (human) = CCL24_HUMAN (human) (UniProt O00175); experiment: BLI, empty cell the 12th table, row 90, column 6
CCL21_HUMAN (human) = CCL21_HUMAN (human) (UniProt O00585); experiment: BLI, empty cell the 12th table, row 87, column 6
[1] = biological target: T2, CCL22_HUMAN (human), O00626; experiment: BLI, empty cell the 12th table, row 33, column 7; settings: remark: other sources report otherwise
T2 chain: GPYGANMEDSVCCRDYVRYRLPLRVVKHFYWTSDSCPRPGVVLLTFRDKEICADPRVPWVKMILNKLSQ

[2] = biological target: T3, CCL19_HUMAN (human), Q99731; experiment: BLI, empty cell the 12th table, row 29, column 7; settings: remark: other sources report otherwise
T3 chain: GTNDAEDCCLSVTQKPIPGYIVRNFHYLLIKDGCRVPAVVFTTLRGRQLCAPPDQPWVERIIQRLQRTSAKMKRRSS

[3] = biological target: T4, CCL17_HUMAN (human), Q92583; experiment: BLI, empty cell the 12th table, row 27, column 7; settings: remark: other sources report otherwise
T4 chain: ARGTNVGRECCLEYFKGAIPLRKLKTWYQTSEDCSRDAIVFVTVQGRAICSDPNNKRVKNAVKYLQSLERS

Measured: binding

B1: P1182_AMBMA (protein)
chain: EPKDDNDYGGGCPFVVLGNGTHAKPAGCSHLCNGAPETLDNIECYNVTEEVAKRMTPGIPYACWLGWCNKGECKRGNRTEVCYRGSEEE
not listed: [1] | [2] | [3]
no binding (tested: 300 nM): all other assays above

B2: P467_RHIPU, L7M8Z8 22-127 (protein)
chain: AEKSLDSDSSGEDYELWTQGCPFLVAENRTGFGTTVSCQHNCNGAIEKVPEGEPCYTIGEDGLGRMKLNLPYNCSLGECSGGVCVPNGRSDVCFKRTWEENNKAMA
no binding (tested: 300 nM): [1] | [2] | [3]
